The supplement of paper PMC10849652
The list shows a part of the results.

Sequences of proteins named here, by UniProt entry; tags and fusion partners are left off. A change or cut given only in a name is not applied to a line headed by its entry.
UniProt Q9NYB9: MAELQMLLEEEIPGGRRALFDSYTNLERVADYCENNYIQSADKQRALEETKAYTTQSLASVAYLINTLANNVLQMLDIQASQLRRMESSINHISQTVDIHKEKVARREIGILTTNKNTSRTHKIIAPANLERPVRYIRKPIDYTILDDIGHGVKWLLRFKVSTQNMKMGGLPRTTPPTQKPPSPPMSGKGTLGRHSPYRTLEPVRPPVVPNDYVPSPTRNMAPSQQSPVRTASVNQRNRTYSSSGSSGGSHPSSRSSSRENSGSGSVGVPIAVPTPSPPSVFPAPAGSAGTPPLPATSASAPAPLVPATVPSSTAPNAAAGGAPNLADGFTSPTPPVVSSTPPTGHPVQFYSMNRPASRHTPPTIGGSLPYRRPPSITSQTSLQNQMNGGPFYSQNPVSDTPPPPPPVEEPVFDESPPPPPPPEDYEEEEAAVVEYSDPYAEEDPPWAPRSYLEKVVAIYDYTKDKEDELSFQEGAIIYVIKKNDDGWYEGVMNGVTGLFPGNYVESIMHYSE
UniProt Q9UKV3: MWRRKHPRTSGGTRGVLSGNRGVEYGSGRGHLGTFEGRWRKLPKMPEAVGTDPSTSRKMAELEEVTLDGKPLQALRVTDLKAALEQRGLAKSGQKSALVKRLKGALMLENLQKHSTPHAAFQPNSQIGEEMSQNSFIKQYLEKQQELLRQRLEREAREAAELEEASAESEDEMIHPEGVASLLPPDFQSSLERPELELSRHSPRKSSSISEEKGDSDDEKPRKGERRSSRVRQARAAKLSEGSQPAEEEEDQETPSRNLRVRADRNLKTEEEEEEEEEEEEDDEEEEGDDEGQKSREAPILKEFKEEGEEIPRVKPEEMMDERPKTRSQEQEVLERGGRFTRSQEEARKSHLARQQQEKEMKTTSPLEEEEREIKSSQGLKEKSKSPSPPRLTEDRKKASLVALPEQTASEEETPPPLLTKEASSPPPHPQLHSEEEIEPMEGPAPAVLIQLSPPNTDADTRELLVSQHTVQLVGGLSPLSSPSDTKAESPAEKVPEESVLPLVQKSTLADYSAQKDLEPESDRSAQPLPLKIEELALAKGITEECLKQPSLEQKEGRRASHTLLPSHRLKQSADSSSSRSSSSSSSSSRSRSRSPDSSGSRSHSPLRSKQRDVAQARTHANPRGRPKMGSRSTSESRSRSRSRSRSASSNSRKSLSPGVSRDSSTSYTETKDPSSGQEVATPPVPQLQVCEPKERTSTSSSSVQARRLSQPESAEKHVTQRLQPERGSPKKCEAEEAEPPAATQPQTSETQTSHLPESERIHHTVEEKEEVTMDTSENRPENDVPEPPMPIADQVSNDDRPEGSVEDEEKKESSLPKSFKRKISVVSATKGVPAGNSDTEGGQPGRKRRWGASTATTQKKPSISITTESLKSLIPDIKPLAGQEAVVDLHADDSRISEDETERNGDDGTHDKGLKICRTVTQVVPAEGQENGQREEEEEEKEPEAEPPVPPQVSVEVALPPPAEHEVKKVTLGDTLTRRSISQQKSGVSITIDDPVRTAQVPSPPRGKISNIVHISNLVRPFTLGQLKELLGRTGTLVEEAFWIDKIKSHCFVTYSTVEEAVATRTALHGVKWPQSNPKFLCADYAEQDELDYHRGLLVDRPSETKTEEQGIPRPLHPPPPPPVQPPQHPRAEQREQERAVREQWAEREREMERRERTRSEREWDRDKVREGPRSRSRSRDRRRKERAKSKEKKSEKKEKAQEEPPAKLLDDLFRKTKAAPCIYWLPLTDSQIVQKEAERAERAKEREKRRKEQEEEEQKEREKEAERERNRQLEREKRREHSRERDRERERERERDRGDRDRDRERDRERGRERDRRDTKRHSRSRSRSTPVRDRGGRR
UniProt Q9NUJ1: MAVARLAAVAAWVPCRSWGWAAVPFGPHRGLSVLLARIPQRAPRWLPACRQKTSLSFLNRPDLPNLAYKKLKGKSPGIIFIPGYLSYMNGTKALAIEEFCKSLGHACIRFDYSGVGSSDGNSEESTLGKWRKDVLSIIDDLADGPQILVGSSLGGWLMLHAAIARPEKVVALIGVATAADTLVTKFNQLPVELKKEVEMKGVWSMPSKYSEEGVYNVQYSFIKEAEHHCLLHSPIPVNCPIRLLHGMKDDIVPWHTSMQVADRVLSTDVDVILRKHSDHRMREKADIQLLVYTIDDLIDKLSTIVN
UniProt P00519, whole entry, looked up: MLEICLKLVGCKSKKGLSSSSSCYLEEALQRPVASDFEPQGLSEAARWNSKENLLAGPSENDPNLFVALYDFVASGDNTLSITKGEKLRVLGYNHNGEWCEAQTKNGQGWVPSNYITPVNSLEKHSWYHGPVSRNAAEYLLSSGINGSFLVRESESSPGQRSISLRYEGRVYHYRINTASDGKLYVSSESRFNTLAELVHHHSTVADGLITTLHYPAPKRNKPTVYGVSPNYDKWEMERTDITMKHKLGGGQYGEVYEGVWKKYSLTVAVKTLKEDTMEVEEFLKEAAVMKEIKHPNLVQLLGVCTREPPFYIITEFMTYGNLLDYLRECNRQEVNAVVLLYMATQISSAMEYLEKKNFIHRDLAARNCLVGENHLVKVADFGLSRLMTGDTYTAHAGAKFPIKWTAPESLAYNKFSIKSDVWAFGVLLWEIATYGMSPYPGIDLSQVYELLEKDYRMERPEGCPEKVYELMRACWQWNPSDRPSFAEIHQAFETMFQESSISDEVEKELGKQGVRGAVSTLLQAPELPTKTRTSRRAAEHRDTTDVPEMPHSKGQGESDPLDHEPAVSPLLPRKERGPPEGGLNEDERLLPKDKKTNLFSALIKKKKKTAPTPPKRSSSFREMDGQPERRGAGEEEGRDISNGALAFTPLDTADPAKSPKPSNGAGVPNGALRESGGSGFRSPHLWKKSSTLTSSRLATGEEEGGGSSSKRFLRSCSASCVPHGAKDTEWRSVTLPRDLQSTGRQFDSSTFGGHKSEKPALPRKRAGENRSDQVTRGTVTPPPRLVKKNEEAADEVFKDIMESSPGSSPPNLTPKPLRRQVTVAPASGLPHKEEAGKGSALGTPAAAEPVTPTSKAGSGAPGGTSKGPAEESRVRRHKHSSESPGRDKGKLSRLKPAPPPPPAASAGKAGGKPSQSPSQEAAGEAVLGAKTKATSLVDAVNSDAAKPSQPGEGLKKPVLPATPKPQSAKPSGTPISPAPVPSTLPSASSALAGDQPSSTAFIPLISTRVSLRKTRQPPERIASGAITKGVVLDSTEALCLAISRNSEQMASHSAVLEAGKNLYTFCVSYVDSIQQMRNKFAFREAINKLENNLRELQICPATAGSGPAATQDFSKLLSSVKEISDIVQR
UniProt Q6PD74: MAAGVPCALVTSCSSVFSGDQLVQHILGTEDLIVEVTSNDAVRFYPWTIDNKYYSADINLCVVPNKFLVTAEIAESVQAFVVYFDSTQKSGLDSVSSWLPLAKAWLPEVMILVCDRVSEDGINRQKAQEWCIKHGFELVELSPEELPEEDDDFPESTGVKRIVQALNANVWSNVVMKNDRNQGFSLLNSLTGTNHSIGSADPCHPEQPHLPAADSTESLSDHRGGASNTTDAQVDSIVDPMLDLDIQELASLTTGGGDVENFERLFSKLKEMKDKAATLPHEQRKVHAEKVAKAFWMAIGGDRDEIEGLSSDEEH
UniProt Q99798: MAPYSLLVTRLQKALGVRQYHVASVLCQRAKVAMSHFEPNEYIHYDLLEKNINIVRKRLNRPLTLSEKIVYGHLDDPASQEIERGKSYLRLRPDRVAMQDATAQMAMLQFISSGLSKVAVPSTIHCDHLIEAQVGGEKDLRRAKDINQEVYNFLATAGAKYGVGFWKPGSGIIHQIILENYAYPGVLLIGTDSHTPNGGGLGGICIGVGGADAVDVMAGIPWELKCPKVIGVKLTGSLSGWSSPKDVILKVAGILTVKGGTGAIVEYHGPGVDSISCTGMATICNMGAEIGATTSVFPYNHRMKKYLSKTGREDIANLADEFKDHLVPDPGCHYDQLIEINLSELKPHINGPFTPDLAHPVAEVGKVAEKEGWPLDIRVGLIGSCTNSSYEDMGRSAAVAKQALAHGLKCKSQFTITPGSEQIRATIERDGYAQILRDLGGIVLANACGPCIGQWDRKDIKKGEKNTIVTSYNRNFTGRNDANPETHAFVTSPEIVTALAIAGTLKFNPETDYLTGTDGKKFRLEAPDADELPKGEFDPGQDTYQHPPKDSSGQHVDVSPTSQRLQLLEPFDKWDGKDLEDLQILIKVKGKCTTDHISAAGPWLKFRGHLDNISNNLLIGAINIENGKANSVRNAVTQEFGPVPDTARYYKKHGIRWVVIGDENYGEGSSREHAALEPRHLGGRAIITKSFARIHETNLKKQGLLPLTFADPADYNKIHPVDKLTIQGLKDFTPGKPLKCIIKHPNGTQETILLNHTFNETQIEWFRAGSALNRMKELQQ
UniProt Q9UKU7: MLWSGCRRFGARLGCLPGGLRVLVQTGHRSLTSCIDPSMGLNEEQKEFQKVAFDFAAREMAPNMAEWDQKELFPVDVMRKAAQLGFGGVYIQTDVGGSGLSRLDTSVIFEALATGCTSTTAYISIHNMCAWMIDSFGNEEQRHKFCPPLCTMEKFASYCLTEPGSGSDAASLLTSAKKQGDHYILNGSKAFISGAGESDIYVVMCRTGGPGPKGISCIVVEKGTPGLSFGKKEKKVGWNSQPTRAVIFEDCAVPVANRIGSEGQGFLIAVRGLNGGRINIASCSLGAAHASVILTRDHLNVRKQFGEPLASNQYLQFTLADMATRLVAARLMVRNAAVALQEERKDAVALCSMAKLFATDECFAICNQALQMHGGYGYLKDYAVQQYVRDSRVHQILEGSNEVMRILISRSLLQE
UniProt Q6UWZ7: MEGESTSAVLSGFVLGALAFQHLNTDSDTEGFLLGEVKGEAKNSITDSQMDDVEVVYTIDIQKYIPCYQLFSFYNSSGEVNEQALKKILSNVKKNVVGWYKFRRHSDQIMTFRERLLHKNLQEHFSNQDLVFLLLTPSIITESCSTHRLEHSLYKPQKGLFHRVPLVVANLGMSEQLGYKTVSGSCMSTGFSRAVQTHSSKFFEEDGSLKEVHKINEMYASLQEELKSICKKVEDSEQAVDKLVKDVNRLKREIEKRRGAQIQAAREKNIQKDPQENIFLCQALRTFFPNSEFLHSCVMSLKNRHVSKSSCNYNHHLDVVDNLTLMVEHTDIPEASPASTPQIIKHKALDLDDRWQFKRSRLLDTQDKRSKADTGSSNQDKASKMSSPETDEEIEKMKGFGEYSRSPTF

Columns and labels:
Test in all cases: log2 fold change, soluble protein after heating vs DMSO (PISA); higher = thermal stabilisation; K562 lysate, 10 uM; active = over 0.2 and 3.5 SD of the protein, either way, in both replicates (recomputed)
[1] = compound: C1=CC=C(C=C1)[C@H](COC2=CC3=C(C=C2)NC(=O)N3)NC(=O)C4=CC=CN(C4=O)CC5=CC(=C(C=C5)F)F
In short: (§1)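 K562 pellets were dounce-homogenised in PBS pH 7.4 with 1 mM MgCl2, and the crude extract at 1 mg/mL protein was treated with 10 μM compound for 30 min. Aliquots were heated for 3 min across 48°C-58°C, pooled, and brought to 0.5% NP-40 at 4°C; soluble protein was the supernatant after 21,000xg for 90 min. Soluble protein was quantified by TMTpro 16plex LC-MS/MS with channel sums equalised, and reported as log2 fold change in thermal stability against DMSO controls, with values from duplicates.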

[2] = compound: CC1=C(SC2=C1C(=N[C@H](C3=NN=C(N32)C)CC(=O)N)C4=CC=C(C=C4)Cl)C
In short: as §1

[3] = compound: CC1=C2C(=CC=C1)N=C(N(C2=O)C3=CC=CC=C3C)CN4C=NC5=C(N=CN=C54)N
In short: as §1

[4] = compound: Cc1sc2c(c1C)C(c1ccc(Cl)cc1)=N[C@@H](CC(=O)OC(C)(C)C)c1nnc(C)n1-2
In short: as §1

[5] = compound: c1ccc([C@@H]2C[C@H]2NC2CCNCC2)cc1
In short: as §1

Measured: log2 fold change

ABI2 (UniProt Q9NYB9)
inactive: [1] -0.021 | [2] 0.035 | [3] 0.052 | [4] -0.011 | [5] 0.073

ACIN1 isoform 5 (UniProt Q9UKV3)
inactive: [1] -0.002 | [2] 0.019 | [3] 0.013 | [4] -0.01 | [5] 0.012

ABHD10 (UniProt Q9NUJ1)
inactive: [1] 0.072 | [2] -0.009 | [3] 0.009 | [4] -0.004 | [5] 0.058

ABL1 isoform 2 (UniProt P00519)
inactive: [1] -0.042 | [2] -0.065 | [3] 0.067 | [4] -0.017 | [5] 0.102

AAGAB (UniProt Q6PD74)
inactive: [1] 0.001 | [2] 0.019 | [3] -0.067 | [4] 0.004 | [5] -0.05

A0A0B4J2A0, A0A0B4J2A0
inactive: [1] 0 | [2] -0.039 | [3] 0.024 | [4] -0.022 | [5] 0.049

ACO2 (UniProt Q99798)
inactive: [1] -0.006 | [2] 0.02 | [3] 0.029 | [4] 0.006 | [5] -0.009

ACAD8 (UniProt Q9UKU7)
inactive: [1] 0.191 | [2] 0.323 | [3] 0.116 | [4] 0.012 | [5] -0.016

ABRAXAS1 (UniProt Q6UWZ7)
inactive: [1] 0.096 | [2] 0.034 | [3] -0.093 | [4] 0.005 | [5] -0.006
